Data: patent publication US20240398920A1 (CYTOMX THERAPEUTICS, published 2024)
These are yes or no findings as the source states them, for the method shown. Some binding calls cover weakened binding; strength is not graded here.

The chains behind the UniProt entries cited, without tags or fusion partners. Residues count along the entry.
UniProt P36941, residues 31-435: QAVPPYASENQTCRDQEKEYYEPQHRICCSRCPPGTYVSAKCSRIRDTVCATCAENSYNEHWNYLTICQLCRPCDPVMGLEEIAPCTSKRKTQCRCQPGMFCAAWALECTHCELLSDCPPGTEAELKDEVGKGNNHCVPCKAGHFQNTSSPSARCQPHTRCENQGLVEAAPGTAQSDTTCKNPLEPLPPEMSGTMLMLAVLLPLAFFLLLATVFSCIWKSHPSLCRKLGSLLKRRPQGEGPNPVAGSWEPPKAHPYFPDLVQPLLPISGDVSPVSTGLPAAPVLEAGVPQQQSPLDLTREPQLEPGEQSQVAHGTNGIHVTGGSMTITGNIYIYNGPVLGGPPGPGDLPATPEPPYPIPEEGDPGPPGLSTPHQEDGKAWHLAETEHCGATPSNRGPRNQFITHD
UniProt P50284, residues 31-415: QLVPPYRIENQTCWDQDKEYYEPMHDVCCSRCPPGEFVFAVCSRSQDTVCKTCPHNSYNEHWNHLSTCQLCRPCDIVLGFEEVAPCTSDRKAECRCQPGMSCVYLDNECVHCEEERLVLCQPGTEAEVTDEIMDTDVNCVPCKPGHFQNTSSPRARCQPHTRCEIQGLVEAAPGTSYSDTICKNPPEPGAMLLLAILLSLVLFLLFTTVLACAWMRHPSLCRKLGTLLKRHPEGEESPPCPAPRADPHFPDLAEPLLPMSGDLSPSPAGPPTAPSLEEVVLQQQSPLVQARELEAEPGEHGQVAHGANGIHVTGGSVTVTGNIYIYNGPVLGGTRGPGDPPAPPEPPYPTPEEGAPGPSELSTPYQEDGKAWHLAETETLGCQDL

Legend:
[1] = molecular target: human lymphotoxin beta receptor (LTbR) (human, UniProt P36941 31-435); experiment: flow cytometry on A375 cells, detected with PE-conjugated anti-human CD258 (LIGHT) antibody
[2] = molecular target: mouse lymphotoxin beta receptor (mouse) (UniProt P50284); experiment: flow cytometry on MC38 cells, detected with PE-conjugated anti-human CD258 (LIGHT) antibody

B1: ProC1487 + uPa (ligand, not shown: small tags and cut ends)
chain: GGSQERRSHEVNPAAHLTGANSSLTGSGGPLLWETQLGLAFLRGLSYHDGALVVTKTGYYYIYSKVQLGGVGCPLGLAGTITHGLYKRTPRYPEELELLVSQQSPCGRATSSSRVWWDSSFLGGVVHLEAGEEVVVRVLGKRLVRLRDGTRSYFGAFMVSSAGGGSSGGS
binding [1]: binds | binding [2]: binds
